Measured data: PubChem BioAssay AID686938 (Drosophila RNAi Screening Center, 2013)
Screen: 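Fly genes required for calcium entry once internal stores are emptied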 (primary screen). Cell system: Drosophila S2R+ cells. Knock-down reagent: long dsRNA against Drosophila genes, about 0.25 µg dsRNA per well, roughly 10,000 cells. Time to read-out: 5 days of knock-down before the calcium assay. Conditions: thapsigargin (SERCA pump blocker) to empty calcium stores; entry signal taken 4 min after adding it. Read-out: 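Duplicate raw fluo-4 intensities per well from a plate reader, at rest and four minutes after thapsigargin emptied calcium stores; entry-to-rest ratio filled for only some wells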. Reading the numbers: calcium entry signal: higher = stronger calcium signal after store depletion; resting calcium signal: higher = higher resting calcium signal. Units: calcium entry signal in fluorescence units; resting calcium signal in fluorescence units. Rule for the call: 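Called when the plate z-score of the entry-to-rest ratio, mean of duplicates, falls below −3; wells with low overall dye signal (Fmax z below −2) or more than five off-targets excluded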. Calls: active = strongly reduced calcium entry; inactive = no strong reduction.
In all, the deposit lists about 23,000 reagents; below is a random part of those with a known target gene and a result. In the full data, 75 (0.33%) were called active. 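Raw plate signals without normalisation; calls rest on plate z-scores that were not deposited; ratio present for only 364 wells.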 A number with no mark means an inactive call. Not stated in the record: the dose of the treatment.

mei-9 (GeneID 31373) [DRSC18792] gave calcium entry signal, replicate 1 = 3.12e7; calcium entry signal, replicate 2 = 4.66e7; resting calcium signal, replicate 1 = 1.55e7; resting calcium signal, replicate 2 = 2.16e7.
After knock-down of CG33136 (GeneID 318894) [DRSC05744], the record shows calcium entry signal, replicate 1 = 3.14e7; calcium entry signal, replicate 2 = 4.22e7; resting calcium signal, replicate 1 = 1.36e7; resting calcium signal, replicate 2 = 2.09e7.
hale (GeneID 40183) [DRSC10882] scored calcium entry signal, replicate 1 = 3.19e7; calcium entry signal, replicate 2 = 5.79e7; resting calcium signal, replicate 1 = 1.55e7; resting calcium signal, replicate 2 = 2.10e7.
dpr16 (GeneID 40619) [DRSC12217] gave calcium entry signal, replicate 1 = 4.38e7; calcium entry signal, replicate 2 = 3.06e7; resting calcium signal, replicate 1 = 1.97e7; resting calcium signal, replicate 2 = 1.50e7.
For dpr16 (GeneID 40619) [DRSC12249] the deposit lists calcium entry signal, replicate 1 = 5.78e7; calcium entry signal, replicate 2 = 2.28e7; resting calcium signal, replicate 1 = 2.65e7; resting calcium signal, replicate 2 = 1.23e7.
After knock-down of Nlg1 (GeneID 40913) [DRSC12485] the results were calcium entry signal, replicate 1 = 3.63e7; calcium entry signal, replicate 2 = 3.91e7; resting calcium signal, replicate 1 = 1.73e7; resting calcium signal, replicate 2 = 2.07e7.
Silencing of Nlg1 (GeneID 40913) [DRSC12532] gave: calcium entry signal, replicate 1 = 4.15e7; calcium entry signal, replicate 2 = 3.21e7; resting calcium signal, replicate 1 = 2.06e7; resting calcium signal, replicate 2 = 1.60e7.
Against Nlg1 (GeneID 40913) [DRSC12533], the values are calcium entry signal, replicate 1 = 4.61e7; calcium entry signal, replicate 2 = 3.69e7; resting calcium signal, replicate 1 = 2.23e7; resting calcium signal, replicate 2 = 1.83e7.
For Nlg1 (GeneID 40913) [DRSC12539], the values are calcium entry signal, replicate 1 = 4.29e7; calcium entry signal, replicate 2 = 3.01e7; resting calcium signal, replicate 1 = 2.11e7; resting calcium signal, replicate 2 = 1.52e7.
After knock-down of CG32225 (GeneID 317926) [DRSC09657], the record shows calcium entry signal, replicate 1 = 3.14e7; calcium entry signal, replicate 2 = 4.99e7; resting calcium signal, replicate 1 = 1.65e7; resting calcium signal, replicate 2 = 2.17e7.

Reprinted from above for reference:
Nlg1 (GeneID 40913) [DRSC12539] — calcium entry signal, replicate 1: 4.29e7; calcium entry signal, replicate 2: 3.01e7; resting calcium signal, replicate 1: 2.11e7; resting calcium signal, replicate 2: 1.52e7
CG32225 (GeneID 317926) [DRSC09657] — calcium entry signal, replicate 1: 3.14e7; calcium entry signal, replicate 2: 4.99e7; resting calcium signal, replicate 1: 1.65e7; resting calcium signal, replicate 2: 2.17e7

The list goes on.
Knock-down of Tektin-C (GeneID 38653) [DRSC09741] gave: calcium entry signal, replicate 1 = 2.17e7; calcium entry signal, replicate 2 = 2.40e7; resting calcium signal, replicate 1 = 1.18e7; resting calcium signal, replicate 2 = 1.31e7.
Depletion of CG32551 (GeneID 318085) [DRSC19259] gave: calcium entry signal, replicate 1 = 4.19e7; calcium entry signal, replicate 2 = 4.26e7; resting calcium signal, replicate 1 = 1.89e7; resting calcium signal, replicate 2 = 1.69e7.
CG32695 (GeneID 31918) [DRSC17975] gave calcium entry signal, replicate 1 = 4.24e7; calcium entry signal, replicate 2 = 5.30e7; resting calcium signal, replicate 1 = 2.01e7; resting calcium signal, replicate 2 = 2.24e7.
Against CG3880 (GeneID 37957) [DRSC04428] the deposit lists calcium entry signal, replicate 1 = 4.66e7; calcium entry signal, replicate 2 = 4.37e7; resting calcium signal, replicate 1 = 2.28e7; resting calcium signal, replicate 2 = 2.01e7.
For CG3880 (GeneID 37957) [DRSC21404] the deposit lists calcium entry signal, replicate 1 = 3.36e7; calcium entry signal, replicate 2 = 3.44e7; resting calcium signal, replicate 1 = 1.80e7; resting calcium signal, replicate 2 = 1.61e7.
